{"sequences": {"note": "Amino acid sequences for entries named in this document (tags omitted).", "UniProt P97313": "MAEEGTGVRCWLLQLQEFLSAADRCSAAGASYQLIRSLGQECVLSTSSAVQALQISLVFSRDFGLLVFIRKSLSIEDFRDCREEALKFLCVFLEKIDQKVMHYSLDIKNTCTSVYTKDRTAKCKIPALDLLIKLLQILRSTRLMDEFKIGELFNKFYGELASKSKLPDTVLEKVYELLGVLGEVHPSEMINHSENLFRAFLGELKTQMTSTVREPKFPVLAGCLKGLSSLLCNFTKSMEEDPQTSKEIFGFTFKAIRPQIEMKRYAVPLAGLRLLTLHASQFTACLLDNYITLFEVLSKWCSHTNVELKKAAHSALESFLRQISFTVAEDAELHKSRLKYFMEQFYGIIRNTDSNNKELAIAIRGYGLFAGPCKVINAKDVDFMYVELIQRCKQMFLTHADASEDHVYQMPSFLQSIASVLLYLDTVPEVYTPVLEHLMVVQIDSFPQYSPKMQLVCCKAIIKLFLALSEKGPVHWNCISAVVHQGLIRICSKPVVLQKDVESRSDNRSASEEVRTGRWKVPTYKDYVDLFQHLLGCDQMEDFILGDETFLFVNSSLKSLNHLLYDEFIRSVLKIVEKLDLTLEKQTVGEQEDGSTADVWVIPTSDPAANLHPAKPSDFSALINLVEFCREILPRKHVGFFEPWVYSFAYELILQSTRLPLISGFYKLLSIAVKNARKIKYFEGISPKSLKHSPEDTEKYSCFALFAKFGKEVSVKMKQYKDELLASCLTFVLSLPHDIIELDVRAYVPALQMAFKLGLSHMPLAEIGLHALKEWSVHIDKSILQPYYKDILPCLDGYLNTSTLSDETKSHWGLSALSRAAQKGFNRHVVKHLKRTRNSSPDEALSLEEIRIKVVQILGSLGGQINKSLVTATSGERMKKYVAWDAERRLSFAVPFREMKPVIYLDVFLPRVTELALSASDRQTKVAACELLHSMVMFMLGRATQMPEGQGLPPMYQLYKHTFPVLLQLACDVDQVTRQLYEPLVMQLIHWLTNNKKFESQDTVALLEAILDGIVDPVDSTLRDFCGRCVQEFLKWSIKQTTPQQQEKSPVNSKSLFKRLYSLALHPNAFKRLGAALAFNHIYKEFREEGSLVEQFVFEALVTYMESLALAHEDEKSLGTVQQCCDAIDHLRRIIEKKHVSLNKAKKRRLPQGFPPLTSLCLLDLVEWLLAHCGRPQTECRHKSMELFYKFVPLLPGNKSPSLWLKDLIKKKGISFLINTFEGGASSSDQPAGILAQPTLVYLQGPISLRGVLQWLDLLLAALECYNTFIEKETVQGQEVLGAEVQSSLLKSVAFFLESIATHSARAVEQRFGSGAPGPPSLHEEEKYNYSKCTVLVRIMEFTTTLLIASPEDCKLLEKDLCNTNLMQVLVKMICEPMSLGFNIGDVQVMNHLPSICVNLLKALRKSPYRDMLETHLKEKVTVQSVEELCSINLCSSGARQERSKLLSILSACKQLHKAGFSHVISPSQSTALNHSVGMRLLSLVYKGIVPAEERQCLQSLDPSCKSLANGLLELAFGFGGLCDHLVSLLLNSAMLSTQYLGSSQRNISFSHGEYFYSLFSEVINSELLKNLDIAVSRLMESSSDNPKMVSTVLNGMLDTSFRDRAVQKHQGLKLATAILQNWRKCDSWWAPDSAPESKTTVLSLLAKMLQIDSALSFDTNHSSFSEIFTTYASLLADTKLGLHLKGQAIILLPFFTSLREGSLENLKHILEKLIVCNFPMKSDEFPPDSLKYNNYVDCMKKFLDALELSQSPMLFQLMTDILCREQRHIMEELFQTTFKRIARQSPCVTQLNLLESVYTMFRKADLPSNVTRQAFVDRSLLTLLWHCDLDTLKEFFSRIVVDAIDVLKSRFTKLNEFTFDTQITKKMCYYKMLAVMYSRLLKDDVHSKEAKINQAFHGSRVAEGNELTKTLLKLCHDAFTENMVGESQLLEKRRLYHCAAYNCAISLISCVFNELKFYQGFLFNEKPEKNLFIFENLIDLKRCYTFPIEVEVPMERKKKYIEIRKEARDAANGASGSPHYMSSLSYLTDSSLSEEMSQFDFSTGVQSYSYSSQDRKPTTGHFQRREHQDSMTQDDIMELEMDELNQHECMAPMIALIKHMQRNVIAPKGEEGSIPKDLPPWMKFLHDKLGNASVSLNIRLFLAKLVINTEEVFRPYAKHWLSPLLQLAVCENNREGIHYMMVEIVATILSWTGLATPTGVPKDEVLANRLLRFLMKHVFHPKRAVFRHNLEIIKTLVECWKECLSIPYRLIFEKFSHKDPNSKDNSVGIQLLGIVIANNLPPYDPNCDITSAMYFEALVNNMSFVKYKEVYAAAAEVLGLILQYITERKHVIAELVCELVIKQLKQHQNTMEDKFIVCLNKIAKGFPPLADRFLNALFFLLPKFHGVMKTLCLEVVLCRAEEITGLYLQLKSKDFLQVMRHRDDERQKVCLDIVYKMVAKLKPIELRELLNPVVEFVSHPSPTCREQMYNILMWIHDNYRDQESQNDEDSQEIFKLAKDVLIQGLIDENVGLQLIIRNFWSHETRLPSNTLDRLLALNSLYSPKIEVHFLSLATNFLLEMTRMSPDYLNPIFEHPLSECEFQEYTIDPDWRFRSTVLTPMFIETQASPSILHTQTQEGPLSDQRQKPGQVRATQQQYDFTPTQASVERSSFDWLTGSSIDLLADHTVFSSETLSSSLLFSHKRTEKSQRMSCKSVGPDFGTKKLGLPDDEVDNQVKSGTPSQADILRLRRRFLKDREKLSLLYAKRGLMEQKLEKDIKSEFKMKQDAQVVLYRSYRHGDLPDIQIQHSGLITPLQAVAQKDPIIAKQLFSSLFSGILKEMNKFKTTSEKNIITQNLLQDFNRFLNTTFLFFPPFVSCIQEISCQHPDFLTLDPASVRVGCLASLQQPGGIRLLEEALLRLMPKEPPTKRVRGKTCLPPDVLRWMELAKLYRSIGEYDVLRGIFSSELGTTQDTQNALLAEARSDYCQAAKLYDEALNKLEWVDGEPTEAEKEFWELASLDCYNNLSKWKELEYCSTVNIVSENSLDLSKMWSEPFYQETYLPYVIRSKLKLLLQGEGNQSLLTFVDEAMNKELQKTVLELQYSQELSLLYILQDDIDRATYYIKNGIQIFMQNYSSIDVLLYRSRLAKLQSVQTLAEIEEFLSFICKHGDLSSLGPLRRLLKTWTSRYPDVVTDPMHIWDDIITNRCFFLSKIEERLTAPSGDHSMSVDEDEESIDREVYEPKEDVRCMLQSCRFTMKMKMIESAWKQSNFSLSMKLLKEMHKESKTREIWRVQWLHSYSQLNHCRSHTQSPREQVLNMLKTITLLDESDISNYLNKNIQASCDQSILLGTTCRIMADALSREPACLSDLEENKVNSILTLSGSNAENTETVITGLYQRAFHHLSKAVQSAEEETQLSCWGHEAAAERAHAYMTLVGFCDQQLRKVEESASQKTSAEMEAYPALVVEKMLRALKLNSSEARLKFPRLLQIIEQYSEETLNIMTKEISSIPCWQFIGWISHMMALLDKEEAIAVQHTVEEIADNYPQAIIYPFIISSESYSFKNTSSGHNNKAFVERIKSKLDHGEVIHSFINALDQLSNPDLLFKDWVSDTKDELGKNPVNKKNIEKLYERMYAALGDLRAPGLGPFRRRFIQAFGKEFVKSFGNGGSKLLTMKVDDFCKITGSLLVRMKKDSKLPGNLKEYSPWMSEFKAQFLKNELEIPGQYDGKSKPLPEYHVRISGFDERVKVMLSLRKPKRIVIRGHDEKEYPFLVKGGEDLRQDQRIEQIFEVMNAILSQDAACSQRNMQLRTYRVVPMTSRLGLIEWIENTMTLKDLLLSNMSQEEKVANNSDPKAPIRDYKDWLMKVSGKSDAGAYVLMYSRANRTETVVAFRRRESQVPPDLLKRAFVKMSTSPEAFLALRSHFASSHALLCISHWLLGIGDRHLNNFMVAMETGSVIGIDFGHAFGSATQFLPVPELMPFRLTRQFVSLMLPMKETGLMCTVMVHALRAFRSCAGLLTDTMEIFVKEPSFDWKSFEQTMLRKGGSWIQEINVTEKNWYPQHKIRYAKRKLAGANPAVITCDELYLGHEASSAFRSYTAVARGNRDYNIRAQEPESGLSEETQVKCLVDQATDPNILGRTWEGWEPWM", "UniProt P46938": "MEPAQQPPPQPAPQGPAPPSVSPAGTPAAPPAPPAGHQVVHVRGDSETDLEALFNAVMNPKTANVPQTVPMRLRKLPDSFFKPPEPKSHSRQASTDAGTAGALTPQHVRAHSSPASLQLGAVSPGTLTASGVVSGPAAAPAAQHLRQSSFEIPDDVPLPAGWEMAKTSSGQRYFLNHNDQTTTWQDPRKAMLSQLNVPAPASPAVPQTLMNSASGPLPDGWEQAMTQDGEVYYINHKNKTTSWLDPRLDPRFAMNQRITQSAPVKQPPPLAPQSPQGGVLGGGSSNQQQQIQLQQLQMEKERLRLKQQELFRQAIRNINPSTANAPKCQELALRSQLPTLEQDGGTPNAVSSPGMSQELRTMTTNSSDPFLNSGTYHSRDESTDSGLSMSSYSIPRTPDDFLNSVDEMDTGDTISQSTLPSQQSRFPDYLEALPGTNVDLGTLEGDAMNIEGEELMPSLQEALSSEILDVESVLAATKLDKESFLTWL"}, "source": "paper PMC12302537", "target": "DNA‐Dependent Protein Kinase catalytic subunit (DNA‐PKcs) (mouse (endogenous in heart tissue)) (UniProt P97313)", "experiment": "affinity purification with mass spectrometry; Co-IP-based proteomics: DNA-PKcs immunoprecipitated with antibody on Protein A/G magnetic beads, lysate in RIPA buffer, 4 °C overnight, washed three times with ice-cold PBS; IgG as negative control", "note": "No constants are given. Whether binding was seen depends on the method and setting. In cells and extracts the contact can be indirect. A yes stands for co-enrichment or nearness to the bait. Other partners may have been found.", "data": [{"substance": "Yes‐Associated Protein 1 (YAP1) (from UniProt P46938 1-488)", "values": [{"measurement": "binding", "result": "binds"}]}]}
